Measured values as given in article PMC9813358, “Insights into the GSDMB-mediated cellular lysis and its targeting by IpaH7.8” (Nature Communications, 2023).
No constants are given. Whether binding was seen depends on the method and setting. Some results given as binding are weak or reduced against the parent protein; the word gives no strength.

By UniProt entry, the sequences of proteins in these tests, tags left out. Residues count along the entry.
UniProt P18014, residues 23-565: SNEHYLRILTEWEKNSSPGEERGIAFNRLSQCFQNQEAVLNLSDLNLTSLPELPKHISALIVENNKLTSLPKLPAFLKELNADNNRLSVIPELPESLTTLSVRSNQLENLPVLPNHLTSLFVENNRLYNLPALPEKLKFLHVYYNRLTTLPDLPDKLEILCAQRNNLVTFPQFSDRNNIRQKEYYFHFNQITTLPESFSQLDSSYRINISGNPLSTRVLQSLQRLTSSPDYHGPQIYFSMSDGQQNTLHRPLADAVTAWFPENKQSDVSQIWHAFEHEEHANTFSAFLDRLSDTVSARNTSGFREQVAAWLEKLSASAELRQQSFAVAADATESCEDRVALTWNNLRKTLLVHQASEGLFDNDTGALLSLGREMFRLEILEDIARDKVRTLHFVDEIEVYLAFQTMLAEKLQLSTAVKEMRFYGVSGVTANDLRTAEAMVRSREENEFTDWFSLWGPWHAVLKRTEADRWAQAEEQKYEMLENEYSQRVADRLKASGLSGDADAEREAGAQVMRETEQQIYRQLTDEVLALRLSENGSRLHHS

Molecular target: His-tagged IpaH7.8 (Shigella flexneri) (UniProt P18014)
Test: pull-down; His-tagged IpaH7.8 (~100 µg) on Ni-NTA resin, tag-free GSDMB and hGSDMD proteins (~400 µg) added; 25 mM Tris-HCl pH 8.0, 200 mM NaCl, 3 mM β-mercaptoethanol, 4 °C; wash with 10 mM imidazole; SDS-PAGE; both purified

Row | Binder | binding
1 | human GSDMD (natural protein, also called hGSDMD; WT hGSDMD; source: E. coli BL21 (DE3), purified (same protocol as GSDMB); not shown: His, N-terminal, cleaved; MBP, N-terminal, cleaved) MGSAFERVVRRVVQELDHGGEFIPVTSLQSSTGFQPYCLVVRKPSSSWFWKPRYKCVNLSIKDILEPDAAEPDVQRGRSFHFYDAMDGQIQGSVELAAPGQAKIAGGAAVSDSSSTSMNVYSLSVDPNTWQTLLHERHLRQPEHKVLQQLRSRGDNVYVVTEVLQTQKEVEVTRTHKREGSGRFSLPGATCLQGEGQGHLSQKKTVTIPSGSTLAFRVAQLVIDSDLDVLLFPDKKQRTFQPPATGHKRSTSEGAWPQLPSGLSMMRCLHNFLTDGVPAEGAFTEDFQGLRAEVETISKELELLDRELCQLLLEGLEGVLRDQLALRALEEALEQGQSLGPVEPLDGPAGAVLECLVLSSGMLVPELAIPVVYLLGALTMLSETQHKLLAEALESQTLLGPLELVGSLLEQSAPWQERSTMSLPPGLLGNSWGEGAPAWVLLDECGLELGEDTPHVCWEPQAQGRMCALYASLALLSGLSQEPH | binds
2 | hGSDMD S124R (natural protein, human, UniProt P57764 1-484, looked up, GSDMD, human, isoform 1 of UniProtKB P57764; construct as m34; also called hGSDMD bearing the S124R mutation; source: E. coli BL21 (DE3), purified (same protocol as GSDMB); not shown: His, N-terminal, cleaved; MBP, N-terminal, cleaved) MGSAFERVVRRVVQELDHGGEFIPVTSLQSSTGFQPYCLVVRKPSSSWFWKPRYKCVNLSIKDILEPDAAEPDVQRGRSFHFYDAMDGQIQGSVELAAPGQAKIAGGAAVSDSSSTSMNVYSLRVDPNTWQTLLHERHLRQPEHKVLQQLRSRGDNVYVVTEVLQTQKEVEVTRTHKREGSGRFSLPGATCLQGEGQGHLSQKKTVTIPSGSTLAFRVAQLVIDSDLDVLLFPDKKQRTFQPPATGHKRSTSEGAWPQLPSGLSMMRCLHNFLTDGVPAEGAFTEDFQGLRAEVETISKELELLDRELCQLLLEGLEGVLRDQLALRALEEALEQGQSLGPVEPLDGPAGAVLECLVLSSGMLVPELAIPVVYLLGALTMLSETQHKLLAEALESQTLLGPLELVGSLLEQSAPWQERSTMSLPPGLLGNSWGEGAPAWVLLDECGLELGEDTPHVCWEPQAQGRMCALYASLALLSGLSQEPH | binds
